# The campaign covered roughly 580,000 compounds. About 6,100 (1.1%) were called active. This list was built around the results that the source calls inconclusive (neither active nor inactive); the mix of calls is not that of the screen. Calls come from the whole dose curve; as a rule, active = well fitted inhibition curve with a large enough effect; inconclusive = small, poorly fitted or top-dose-only effect, or another doubt; inactive = no such curve, though single readings can be large or run the other way. Potencies beside an inconclusive call are fits to weak or partial responses and may not hold up.
# By UniProt entry, the sequences of proteins in these tests, tags left out. Where a name states a change or a piece, a line headed by the entry shows the natural chain unless it says otherwise.
# UniProt P18054: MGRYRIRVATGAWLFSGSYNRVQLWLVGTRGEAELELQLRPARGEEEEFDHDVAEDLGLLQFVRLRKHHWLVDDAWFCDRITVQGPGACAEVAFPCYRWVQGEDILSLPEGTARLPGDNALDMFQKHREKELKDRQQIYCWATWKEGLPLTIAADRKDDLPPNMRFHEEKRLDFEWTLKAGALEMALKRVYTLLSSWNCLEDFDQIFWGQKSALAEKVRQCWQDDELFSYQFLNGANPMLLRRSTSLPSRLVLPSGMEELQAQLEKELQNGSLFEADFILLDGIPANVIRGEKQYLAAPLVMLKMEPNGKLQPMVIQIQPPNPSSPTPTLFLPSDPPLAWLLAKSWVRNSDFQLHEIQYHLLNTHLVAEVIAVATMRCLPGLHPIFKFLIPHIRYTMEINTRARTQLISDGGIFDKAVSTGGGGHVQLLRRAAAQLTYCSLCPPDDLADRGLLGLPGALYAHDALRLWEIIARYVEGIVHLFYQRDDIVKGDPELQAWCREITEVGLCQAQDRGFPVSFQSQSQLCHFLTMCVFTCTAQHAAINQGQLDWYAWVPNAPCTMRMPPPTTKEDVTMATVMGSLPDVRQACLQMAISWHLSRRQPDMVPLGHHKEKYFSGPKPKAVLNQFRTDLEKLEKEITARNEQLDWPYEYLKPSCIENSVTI
# Target: Polyunsaturated fatty acid lipoxygenase ALOX12 (Homo sapiens) (UniProt P18054)
# Experiment: Primary qHTS assay for inhibitors of human arachidonate 12S-lipoxygenase (ALOX12): Round 2
# Conditions: purified 12hLO, xylenol orange hydroperoxide absorbance; activity change, negative = inhibition: at 108 µM (top of the series) unless noted
# Outline: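 Hydroperoxide product was detected by ferrous iron/xylenol orange as the 573 to 405 nm absorbance ratio. Arachidonic acid at 40 uM (final) was turned over for 30 min at room temperature by 150 nM human 12hLO, pH 7.0 Hepes buffer, after 15 min compound preincubation.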
# % is set by controls: 0 for no effect and ±100 for the full control effect; potency is the fitted concentration of half-maximal effect.
SMILES,Potency,"activity change, negative = inhibition"
CNC(=O)[C@@H]1C[C@H](Oc2ccccc2)CN1C(=O)Cn1c(=O)oc2ccccc21,inactive,–
CCCCCOc1ccc(C(=O)C2CC2)cc1,"inconclusive: 31.6 µM [inhibitor, single point]",–
COc1ccc(C(=O)CN2CCN(c3ccc(Cl)cc3)CC2)cc1OC,"inconclusive: 50.1 µM [inhibitor, single point]",–
CC1=CC(=NOC(=O)c2cccc([N+](=O)[O-])c2)C=C(C)C1=O,"inconclusive: 44.7 µM [inhibitor, partial curve, poor fit]",–
Cc1ccc(C(=O)NC(=S)Nc2cccc(NC(=O)c3ccccc3Cl)c2)cc1[N+](=O)[O-],"inconclusive: 7.94 µM [inhibitor, full curve]",–
O=C(Nc1ccc(Cl)c(C(F)(F)F)c1)C1=C(c2ccccc2)S(=O)(=O)CCO1,"inconclusive: 56.2 µM [inhibitor, partial curve, poor fit]",–
CCC1(c2ccc(F)cc2)NC(=O)N(CC(=O)c2cc(C)n(C3CC3)c2C)C1=O (stereo not drawn),"inconclusive: 89.1 µM [inhibitor, single point]",–
N#Cc1ccc(COc2ccc3ccccc3c2CN2CCCCC2)cc1,"inconclusive: 56.2 µM [inhibitor, single point]",–
COc1ccccc1NC(=O)CN1CCN(CC(=O)Nc2ccc3c(c2)OCO3)CC1,inactive,–
O=C(/C=C/c1ccc(F)cc1)NC(=S)N1CCCCC1c1cccnc1 (stereo not drawn),"inconclusive: 50.1 µM [inhibitor, partial curve, poor fit]",–
COc1cccc(CNC(=O)CCCCCn2c(=O)[nH]c3cc(OC)c(OC)cc3c2=O)c1,"inconclusive: 126 µM [inhibitor, partial curve, poor fit]",–
O=C1COc2ccc(NCc3cccs3)nc2CN1Cc1ccc(C(F)(F)F)cc1,"inconclusive: 70.8 µM [inhibitor, partial curve, poor fit]",–
COc1ccc(C(=O)NC(=S)NCc2ccco2)cc1OC,"inconclusive: 56.2 µM [inhibitor, partial curve, poor fit]",–
O=S1(=O)N[C@@H](Cc2ccccc2)COc2cccc(NCCCN3CCOCC3)c21,inactive,–
COc1ccc(OC)c(-c2ncc3c(n2)OCCN(c2cccc(C(F)(F)F)c2)C3=O)c1,"inconclusive: 2.82 µM [inhibitor, full curve, poor fit]",–
CC(=O)c1cccc(Nc2ncnc3ccc(Br)cc23)c1,"inconclusive: 112 µM [inhibitor, single point]",–
CC1(C)CC(=O)C2=C(C1)OC(N)=C(C#N)C2c1ccc[nH]1 (stereo not drawn),"inconclusive: 44.7 µM [inhibitor, partial curve, poor fit]",–
Cc1ccccc1NC(=S)Nc1ccccn1,"inconclusive: 11.2 µM [inhibitor, partial curve, poor fit]",–
COc1ccccc1-c1cc(C(=O)N2CCOCC2)nc2c1cnn2C,–,inactive: 4.68% [at 6.33 µM]
Cc1ccc(S(=O)(=O)N2CCN(C(=O)COC(=O)CNC(=O)c3ccc(C(C)(C)C)cc3)CC2)c(C)c1,"inconclusive: 50.1 µM [inhibitor, partial curve, poor fit]",–
CCCC(=O)N1Cc2ccccc2CC2(CCCCN2CC2CCOCC2)C1 (stereo not drawn),–,inactive: 7.04% [at 6.33 µM]

# No new results follow: 5 of the compounds above.
SMILES,Potency,"activity change, negative = inhibition"
N#Cc1ccc(COc2ccc3ccccc3c2CN2CCCCC2)cc1,"inconclusive: 56.2 µM [inhibitor, single point]",–
COc1ccccc1NC(=O)CN1CCN(CC(=O)Nc2ccc3c(c2)OCO3)CC1,inactive,–
O=C(/C=C/c1ccc(F)cc1)NC(=S)N1CCCCC1c1cccnc1 (stereo not drawn),"inconclusive: 50.1 µM [inhibitor, partial curve, poor fit]",–
COc1cccc(CNC(=O)CCCCCn2c(=O)[nH]c3cc(OC)c(OC)cc3c2=O)c1,"inconclusive: 126 µM [inhibitor, partial curve, poor fit]",–
O=C1COc2ccc(NCc3cccs3)nc2CN1Cc1ccc(C(F)(F)F)cc1,"inconclusive: 70.8 µM [inhibitor, partial curve, poor fit]",–

# The list continues.

SMILES,Potency,"activity change, negative = inhibition"
COC(=O)C[C@@H]1C=C[C@@H](NC(=O)C2CCC2)[C@@H](CO)O1,inactive,–
N#C/C(=C(/O)CN1CCOCC1)c1nc2ccccc2s1,"inconclusive: 2.82 µM [inhibitor, full curve, poor fit]",–
COc1ccc(C2C(C#N)=C(C)NC3=C2C(=O)c2ccccc23)cc1 (stereo not drawn),"inconclusive: 11.2 µM [inhibitor, full curve, poor fit]",–
COc1nsnc1NS(=O)(=O)c1ccc(NC(=S)NC(=O)c2ccncc2)cc1,"inconclusive: 44.7 µM [inhibitor, partial curve]",–
Nc1c(C(=O)Nc2ccccc2)c2nc3ccccc3nc2n1-c1ccc(O)cc1,inactive,–
Cc1cccc(N2CC(C(=O)Nc3nnc(SCc4cccnc4)s3)CC2=O)c1 (stereo not drawn),"inconclusive: 10 µM [inhibitor, full curve]",–
Cc1cc(-c2ccc(N3CCOCC3)cc2)nc2ccccc12,"inconclusive: 44.7 µM [inhibitor, full curve, poor fit]",–
CCOc1ccc(C(=O)NCCc2sc(-c3ccc(OC)cc3)nc2C)cc1,inactive,–
COc1ccccc1NC(=O)CSc1oc(-c2ccccc2)nc1S(=O)(=O)c1ccccc1,"inconclusive: 44.7 µM [inhibitor, partial curve]",–
C=CCN1CCc2cc(O)c(O)cc2[C@H](c2ccccc2)C1,"inconclusive: 6.31 µM [inhibitor, full curve, poor fit]",–
O=C1c2ccccc2NC(c2ccc(-c3ccccc3F)o2)N1O (stereo not drawn),"inconclusive: 14.1 µM [inhibitor, full curve, poor fit]",–
Cc1nc(N2CCOCC2)ncc1-c1cc(=O)[nH]c(N2CCc3ccccc3C2)n1,"inconclusive: 4.47 µM [inhibitor, full curve, poor fit]",–
CCN1c2cc(C(=O)Nc3cc(F)ccc3F)ccc2C(=O)N2CCCCCC21 (stereo not drawn),inactive,–
COc1ccccc1CNC(=O)CCCn1c(=O)c2ccccc2n(Cc2ccccc2C#N)c1=O,"inconclusive: 112 µM [inhibitor, partial curve, poor fit]",–
Cc1ccc(C(=S)N2CCN(Cc3ccccc3)CC2)cc1,inactive,–
COc1ccc2[nH]c(CN3CCC(n4nccc4NC(=O)C4CC4)CC3)c(C)c2c1,"inconclusive: 79.4 µM [inhibitor, single point]",–
CCOc1ccccc1C(=O)Nc1ccc(S(=O)(=O)Nc2ncccn2)cc1,"inconclusive: 79.4 µM [inhibitor, partial curve, poor fit]",–
Cc1ccc(S(=O)(=O)Nc2c(C)nn(C)c2C)cc1C,inactive,–
Fc1ccc(Br)cc1/C=N/Nc1c(Cl)cc(Cl)cc1Cl,active: 17.8 µM,–
Cc1cccc(C(=O)Nc2ccc3nsnc3c2)c1,"inconclusive: 79.4 µM [inhibitor, single point]",–
COC(=O)c1cccc(S(=O)(=O)Oc2ccc3ccc(=O)oc3c2)c1,"inconclusive: 22.4 µM [inhibitor, partial curve, poor fit]",–

SMILES,Potency,"activity change, negative = inhibition"
O=C(O)CNC(=O)c1ccc(NS(=O)(=O)c2ccc3ccccc3c2)cc1,"inconclusive: 44.7 µM [inhibitor, partial curve, poor fit]",–
CCCN1CCN(C2=NC(Cc3ccccc3)C(=O)N2c2ccccc2OC)CC1 (stereo not drawn),"inconclusive: 44.7 µM [inhibitor, partial curve, poor fit]",–
CC1=C[C@@H](CNC(=O)CC(C)(C)C)[C@H](C(C)C)C[C@H]1CC(=O)NC1CCCC1,"inconclusive: 31.6 µM [inhibitor, full curve]",–
CCCc1cc(=O)oc2c(C)c(OC(C)C(=O)NCCCn3ccnc3)ccc12 (stereo not drawn),inactive,–
COc1ccc(C2/C(=C(/O)c3ccc(C)cc3)C(=O)C(=O)N2C)cc1 (stereo not drawn),"inconclusive: 3.55 µM [inhibitor, full curve, poor fit]",–
CCn1cnc2c1c(=O)n(CC(=O)Nc1ccc(N3CCCC3)cc1)c(=O)n2Cc1ccccc1,"inconclusive: 50.1 µM [inhibitor, single point]",–
O=C(Nc1ccccc1F)N1CC2CCC(C1)N2Cc1ccc(-c2ccsc2)cc1,"inconclusive: 31.6 µM [inhibitor, full curve]",–
Cc1cc(C)cc(NC(=O)CSc2nc3ccccc3nc2N2CCCC2)c1,inactive,–
O=C1CC(NS(=O)(=O)N2CCCC2)CN1Cc1ccc(F)cc1 (stereo not drawn),"inconclusive: 4.47 µM [inhibitor, single point]",–
COCCNC(=S)Nc1cc(OC)c(OC)cc1C#N,"inconclusive: 28.2 µM [inhibitor, partial curve]",–
Cc1nc(-c2ccc(S(=O)(=O)N3CCN(Cc4ccccc4)CC3)s2)cs1,"inconclusive: 112 µM [inhibitor, single point]",–
COCC(=O)N[C@H]1CC[C@@H](CC(=O)OC)O[C@@H]1CO,inactive,–
Cc1cccc2sc(NNC(=O)c3ccc(S(=O)(=O)N4CCc5ccccc5C4)cc3)nc12,"inconclusive: 70.8 µM [inhibitor, partial curve, poor fit]",–
O=C(CN1C(=O)NC2(CCc3ccccc32)C1=O)c1ccc(Br)cc1 (stereo not drawn),inactive,–
COc1ccccc1Nc1sc(C(=O)c2ccc(Br)cc2)c(N)c1C(N)=O,inactive,–
Cc1cc(=O)n(C)c(=O)n1CCCNc1ccccc1,"inconclusive: 2 µM [inhibitor, full curve, poor fit]",–
CC(C)N1CCc2c(sc(NC(=O)c3cc4cc([N+](=O)[O-])ccc4s3)c2C(N)=O)C1,"inconclusive: 44.7 µM [inhibitor, partial curve]",–
Cc1ccn2c(NCc3ccccc3)c(-c3cccs3)nc2c1,"inconclusive: 50.1 µM [inhibitor, partial curve, poor fit]",–
CCc1ccc(CNC(=O)c2ccc3c(c2)N(CC)C2CCCCCN2C3=O)cc1 (stereo not drawn),"inconclusive: 3.55 µM [inhibitor, full curve, poor fit]",–
COc1ccc(CCN(CC(=O)NC2CCCC2)C(=O)Cn2nnc(-c3ccc(C)o3)n2)cc1OC,"inconclusive: 12.6 µM [inhibitor, full curve, poor fit]",–
Cc1ccc(-c2nnc3ccc(NCc4ccc5c(c4)OCO5)nn23)nc1,"inconclusive: 12.6 µM [inhibitor, full curve]",–

# Reference: PubChem BioAssay AID1671190 (National Center for Advancing Translational Sciences (NCATS), 2021)
